Experimental data from PubChem BioAssay AID2549 (National Center for Advancing Translational Sciences (NCATS), 2010).
Values joined by “and” are separate entries in the source; they are usually repeats but may differ in a detail not shown here. Equal entries are not always repeated. In all, about 240,000 compounds went through this assay and about 1,300 (0.54%) were called active. This list was built around the results that the source calls inconclusive (neither active nor inactive); the mix of calls is not that of the screen. Calls come from the whole dose curve; as a rule, active = well fitted inhibition curve with a large enough effect; inconclusive = small, poorly fitted or top-dose-only effect; inactive = flat fitted curve, though single readings scatter. Potencies of inconclusive entries are doubtful fits and often do not repeat. The source holds several records for some structures; these can differ, active in one and inactive in another.

The chains behind the UniProt entries cited, without tags or fusion partners. Where a name states a change or a piece, a line headed by the entry shows the natural chain unless it says otherwise.
UniProt P46063: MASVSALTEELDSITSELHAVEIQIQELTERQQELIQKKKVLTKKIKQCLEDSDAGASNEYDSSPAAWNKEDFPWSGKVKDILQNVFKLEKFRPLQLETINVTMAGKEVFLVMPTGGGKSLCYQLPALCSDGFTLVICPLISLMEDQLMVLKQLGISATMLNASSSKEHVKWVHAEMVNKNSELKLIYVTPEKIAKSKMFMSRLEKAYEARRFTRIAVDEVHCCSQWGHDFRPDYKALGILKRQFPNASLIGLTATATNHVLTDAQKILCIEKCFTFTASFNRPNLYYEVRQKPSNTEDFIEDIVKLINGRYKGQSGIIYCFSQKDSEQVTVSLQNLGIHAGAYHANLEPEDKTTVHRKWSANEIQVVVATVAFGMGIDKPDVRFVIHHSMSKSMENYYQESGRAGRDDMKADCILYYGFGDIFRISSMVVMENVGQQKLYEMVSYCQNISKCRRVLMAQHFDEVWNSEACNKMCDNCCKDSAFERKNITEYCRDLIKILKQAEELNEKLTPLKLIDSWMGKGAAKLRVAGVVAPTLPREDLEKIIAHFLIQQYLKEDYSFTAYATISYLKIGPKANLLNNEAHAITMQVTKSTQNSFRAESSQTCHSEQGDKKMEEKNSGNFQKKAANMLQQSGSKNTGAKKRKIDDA

Target: ATP-dependent DNA helicase Q1 (Homo sapiens) (UniProt P46063)
Experiment: qHTS Assay for Inhibitors of RecQ-Like Dna Helicase 1 (RECQ1); note: nearly all actives have a fitted effect of over 30% in size;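 for activity, negative = inhibition: plate controls were vehicle for no effect and no enzyme for full effect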
Settings: RECQ1 DNA unwinding, red fluorescence kinetic read; activity, negative = inhibition: at 57.3 µM (top of the series); series mostly up to 57.3 µM
Procedure, shortened: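 50 nM RECQ1T1 preincubated 15 min with compound in Tris pH 8.0 buffer with MgCl2, DTT, Tween-20 and 2.5 ug/ml poly(dI-dC); started with 200 nM TAMRA/BHQ-2 forked duplex and 2 mM ATP. Unwinding read as fluorescence (525/598 nm), two reads 2 h apart.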
Potency is the fitted concentration of half-maximal effect.

Structure (SMILES) | Potency | activity, negative = inhibition | outcome
CCN(Cc1ccncc1)C(=O)C1CCN(S(=O)(=O)c2cccs2)CC1 | inconclusive: 0.112 µM [inhibitor, full curve, poor fit] |  | 
COC(=O)c1ccc(OCC2c3cc(OC)c(OC)cc3CCN2C(=O)C2CC2)cc1 (stereo not drawn) | inconclusive: 7.08 µM [inhibitor, single point] |  | 
COCCn1c(C)cc(C(=O)COC(=O)c2cc3c(s2)CCC3)c1C | inconclusive: 28.2 µM [inhibitor, single point] |  | 
FC(F)(F)COc1ccc(-c2nnc(SCc3c(Cl)cccc3Cl)o2)cn1 | inconclusive: 8.91 µM [inhibitor, single point] |  | 
O=C(c1ccco1)N1CCN(S(=O)(=O)Cc2ccc(Cl)cc2)CC1 | inconclusive: 3.55 µM [inhibitor, single point] |  | 
Cc1cc(O)c(C=O)c2c1C(=O)Oc1c(CO)c(O)c3c(c1O2)C(O)OC3=O (stereo not drawn) | active: 3.98 µM |  | 
CCCC(C(=O)NCc1ccco1)N(C(=O)CNS(=O)(=O)c1ccc(Cl)cc1)C1CCCC1 (stereo not drawn) |  | inactive: -11.7% | 
Cc1ccc(S(=O)(=O)Oc2ccc(N=Nc3ccc(-c4ccc(N=Nc5c(O)ccc6cc(S(=O)(=O)O)cc(S(=O)(=O)O)c56)c(C)c4)cc3C)cc2)cc1 | active: 25.1 µM |  | 
Cc1cccc(NC(=O)c2ccc(S(=O)(=O)N3CCCCC3)cc2)n1 |  |  | inactive
Cc1n[nH]c(C)c1Sc1ccccc1N=Cc1cc([N+](=O)[O-])ccc1O | inconclusive: 35.5 µM [inhibitor, single point] |  | 
O=C(Nc1nnc(-c2cccs2)o1)C1CC1 | inconclusive: 17.8 µM [inhibitor, partial curve] |  | 
COC(=O)c1cc2c(-c3ccccc3)cc3ccccn3c-2c1C(=O)OC | inconclusive: 39.8 µM [inhibitor, single point] |  | 
Cc1ccc2sc(C)[n+](CCCS(=O)(=O)[O-])c2c1 | active: 3.55 µM |  | 
O=C(N/N=C/c1cn(-c2ccccc2)nc1-c1ccc2c(c1)OCCO2)c1ccncc1 |  | inactive: -14.5% | 
COc1ccc(NC(=O)c2noc3c2CCCCC3)cc1 | inconclusive: 3.55 µM [inhibitor, partial curve, poor fit] |  | 
CCCCC/C=C/C=C1/C(=O)C=C[C@@H]1C/C=C\CCCC(=O)O | active: 28.2 µM and active: 35.5 µM |  | 
COc1ccc(OCC(=O)Nc2cccc3ncccc23)cc1 | inconclusive: 0.199 µM [inhibitor, full curve] |  | 
COc1ccc(-c2cc(=O)oc3cc(OC(C)C(=O)O)ccc23)cc1 (stereo not drawn) | inconclusive: 6.31 µM [inhibitor, single point] |  | 
O=C(Cn1cnc2cc([N+](=O)[O-])ccc2c1=O)NC(c1ccccc1)c1ccccc1 | inconclusive: 39.8 µM [inhibitor, single point] |  | 
Cc1ccc(Cn2c(=O)sc3ccccc3c2=O)cc1 |  | inactive: -5.8% | 
Cc1ccc(C(=O)N/N=C/c2cn(Cc3ccccc3)c3ccccc23)cn1 |  | inactive: -7.72% | 
COC(=O)N1C2=C(c3ccccc3[C@@H]1CC(=O)Nc1ccc3ccc4cccc5ccc1c3c45)[C@@H]1C(=O)N(c3ccccc3)C(=O)[C@@H]1[C@H](C)C2 |  | inactive: 9.28% [at 11.5 µM] | 
Cc1cc(/C=C2/C(=N)N3C(=NC2=O)SN=C3S(C)(=O)=O)c(C)n1-c1ccccc1 | inconclusive: 31.6 µM [inhibitor, single point] |  | 

Structure (SMILES) | Potency | activity, negative = inhibition | outcome
O=C(N/N=C/c1ccc(-c2ccc(S(=O)(=O)Nc3ncccn3)cc2)o1)c1cc2ccccc2cc1O | active: 3.55 µM |  | 
C=CCn1c(SCc2cc(=O)n3ccsc3n2)nnc1C1CCCCC1 | inconclusive: 39.8 µM [inhibitor, single point] |  | 
C=CC(C)(C)c1[nH]c2ccccc2c1C1=C(O)C(=O)C(c2c[nH]c3c(CC=C(C)C)cccc23)=C(O)C1=O | active: 10 µM |  | 
CCOC(=O)CCN1C(=O)[C@H]2[C@H]3[C@H](O)[C@H](O)C/C(=N/OC[C@@H](O)COCc4ccco4)[C@H]3CC[C@@H]2C1=O |  |  | inactive [at 11.5 µM]
CCC(=O)N1CCN(c2ccc(OC)cc2[N+](=O)[O-])CC1 | inconclusive: 1 µM [inhibitor, full curve, poor fit] |  | 
CCC1=NN2C(=N)/C(=C\c3cccn3-c3cccc(Cl)c3)C(=O)N=C2S1 | inconclusive: 39.8 µM [inhibitor, partial curve] |  | 
CC1CCc2c(sc(NC(=O)COC(=O)c3ccc(O)cc3)c2C#N)C1 (stereo not drawn) | inconclusive: 39.8 µM [inhibitor, single point] |  | 
CCCc1nnc(NC(=O)OCC)s1 | inconclusive: 0.158 µM [inhibitor, full curve, poor fit] |  | 
Cc1ccc(NS(=O)(=O)c2ccc(N/N=C/c3ccccc3OCC(=O)O)c([N+](=O)[O-])c2)c(C)c1 | inconclusive: 39.8 µM [inhibitor, single point] |  | 
O=C(CN1CCN(c2ncccn2)CC1)NCCC1=CCCCC1 | inconclusive: 0.282 µM [inhibitor, full curve, poor fit] |  | 
Cc1cc(NC(=O)Nc2ccc3c(ccn3C)c2)sn1 | inconclusive: 0.282 µM [inhibitor, full curve, poor fit] |  | 
CCCCOc1ccc(-n2nc(C)cc2C)nn1 | inconclusive: 0.282 µM [inhibitor, full curve, poor fit] |  | 
CCOc1ccc(S(=O)(=O)N2CCN(c3ccc(OC)cc3)CC2)c2cccnc12 | inconclusive: 0.891 µM [inhibitor, single point] |  | 
Cc1ccccc1N1C(=O)CC(N(O)c2ccccc2)C1=O (stereo not drawn) |  | inactive: -8.62% | 
CCC(CC)C(=O)Nc1cccc(C(=O)Nc2nccs2)c1 | inconclusive: 31.6 µM [inhibitor, single point] |  | 
Nn1c(SCC(=O)NC(=O)NCc2ccco2)nnc1-c1ccc(OC(F)F)cc1 | inconclusive: 35.5 µM [inhibitor, partial curve] |  | 
COCCOC(=O)c1[nH]c2c(c1C)C(=O)CC(c1ccco1)C2 (stereo not drawn) | active: 35.5 µM |  | 
COc1ccc(NC(=O)CN(c2ccccc2)S(=O)(=O)N(C)C)cc1OC | inconclusive: 28.2 µM [inhibitor, single point] |  | 
O=C(O)/C=C/c1cn(-c2ccccc2)nc1-c1ccc(-c2ccc([N+](=O)[O-])cc2)o1 |  | inactive: -3.58% | 
COC(=O)NC(c1cccs1)C(C(C)=O)C(=O)OC (stereo not drawn) |  | inactive: 2.68% [at 11.5 µM] | 
CCN(CC)C(=O)CSc1nc2ccc(NC(=O)CSc3nccn3C)cc2s1 | active: 20 µM |  | 
CCN(CC)c1ccc(C(=C2C=CC(=[N+](CC)Cc3cccc(S(=O)(=O)[O-])c3)C=C2)c2ccc(N(CC)Cc3cccc(S(=O)(=O)O)c3)cc2)cc1 | active: 3.98 µM |  | 
CC(C)N(C)C |  | inactive: 0.264% | 

Structure (SMILES) | Potency | activity, negative = inhibition | outcome
O=C(Nc1ccccc1Cc1ccccc1)c1ccccc1NS(=O)(=O)c1ccc(Cl)s1 | inconclusive: 35.5 µM [inhibitor, single point] |  | 
Cc1cc(C(=O)OCC(=O)c2ccc(Cl)c([N+](=O)[O-])c2)c2cccc(C)c2n1 | active: 17.8 µM |  | 
COC(=O)C/C=C\[C@H](C)[C@H](CO)NS(=O)(=O)c1ccc(C)cc1 |  |  | inactive [at 11.5 µM]
O=C(O)C1CSC(c2ccco2)N1 (stereo not drawn) | active: 31.6 µM |  | 
CCCn1nnc(NC(=S)NC(=O)/C=C/c2ccco2)n1 | inconclusive: 35.5 µM [inhibitor, single point] |  | 
CC1(C(=O)O)NCCc2cc(O)c(O)cc21 (stereo not drawn) | active: 6.31 µM |  | 
COc1cc(OC)c(NC(=O)c2ccc3c(SCC(=O)O)c4c(nc3c2)CCCC4)cc1Cl | inconclusive: 39.8 µM [inhibitor, single point] |  | 
Cc1ccc(NCc2ccccc2O)cc1 |  | inactive: 3.55% | 
c1ccc2c(c1)CCNC2c1ccncc1 (stereo not drawn) | inconclusive: 0.0282 µM [inhibitor, full curve, poor fit] |  | 
CC1=NN(c2ccccc2)C(=O)/C1=C\c1ccc(Br)s1 |  | inactive: -13.9% | 
O=C(N/N=C/c1cccc(F)c1)c1cc(-c2ccco2)nc2ccccc12 | active: 22.4 µM |  | 
COc1cc2cc3c(N)c(C(=O)Nc4sc(C)c(C)c4C#N)sc3nc2cc1OC | active: 10 µM |  | 
Cc1ccc(NC2=Nc3ccccc3N3C2=Nc2c(c(C)nn2-c2ccccc2)C3c2ccc(O)c(O)c2)cc1 (stereo not drawn) | active: 31.6 µM |  | 
Cc1ccc(C(=O)Nc2ccc3c(c2)OCO3)cc1S(=O)(=O)N1CCCC1 | inconclusive: 0.158 µM [inhibitor, partial curve, poor fit] |  | 
S=C(Nc1ccc2nsnc2c1)N1CCCC1 | inconclusive: 39.8 µM [inhibitor, single point] |  | 
CCOc1ccc(C(C)=O)cc1CSc1nnc(-c2ccoc2C)n1N | inconclusive: 39.8 µM [inhibitor, single point] |  | 
Cc1csc(C(C#N)C(=O)c2ccc(S(=O)(=O)N3CCCC3)cc2)n1 (stereo not drawn) |  | inactive: -7% | 
Cc1c(C(=O)NCc2ccc3c(c2)cc(C)n3C)cccc1[N+](=O)[O-] | inconclusive: 35.5 µM [inhibitor, single point] |  | 
CSc1nnc(-c2ccco2)c(-c2ccco2)n1 | inconclusive: 39.8 µM [inhibitor, single point] |  | 
c1cc(-c2noc(CCC3CCCC3)n2)ccn1 | inconclusive: 35.5 µM [inhibitor, single point] |  | 
CCN(CC)C1=N/C(=C\c2ccco2)C(=O)N1c1ccccc1 | inconclusive: 39.8 µM [inhibitor, single point] |  | 
C=CCOC(=O)C1C(=O)CC(C)(O)C(C(=O)OCC=C)C1c1ccc(N(C)C)cc1 (stereo not drawn) | inconclusive: 39.8 µM [inhibitor, single point] |  | 

Some of the entries above, set out differently.

| Structure (SMILES) | Potency | activity, negative = inhibition | outcome |
| --- | --- | --- | --- |
| COC(=O)C/C=C\[C@H](C)[C@H](CO)NS(=O)(=O)c1ccc(C)cc1 |  |  | inactive [at 11.5 µM] |
| c1cc(-c2noc(CCC3CCCC3)n2)ccn1 | inconclusive: 35.5 µM [inhibitor, single point] |  |  |
